Results taken from PMC6591170.
Construct, isoform or probe ends are uncertain for at least one entry.

Tested on: human alpha-thrombin (Homo sapiens)
Experiment: ITC
Settings: 3'-glycerol-3' linker joins the two listed segments covalently (both written 5' to 3'); one molecule, not a duplex; ITC in PBS (10 mM phosphate, 2.7 mM KCl, 137 mM NaCl), pH 7.4, 22 °C; ODN 25 or 100 µM into thrombin 2.5 or 10 µM; commercial protein; folded or branched DNA; letters put together from the description

Sequence	Kd [nM]
GGTTGGTGTGGTTGG / GGTTGGTGTGGTTGG [Gly]	15
GGTTGGTGTGGTTGGA / GGTTGGTGTGGTTGGA [AGlyA]	5
